Assay results from patent publication US7163960B2, “Treatment and prevention of inflammatory disorders” (Monsanto Technology L.L.C., priority 2002, dated 2007).
At least one structure is not confirmed: it was looked up by name or label, or the drawing left a doubt.

Key:
IL-1β = IL-1β synthesis in LPS-treated whole blood; type: in vivo, human; conditions: 0.75 g/day or 1.5 g/day (either dose)
Experimental: (§1) Following a 3-week run-in period, subjects ingested either ALA, SDA, EPA supplied as ethyl esters in capsules. Intakes were 0.75 g/day for 3 weeks followed by 1.5 g/day for the subsequent 3 weeks.
(§2) Blood (4 mL) was added to heparinised tubes, bacterial lipopolysaccharide (LPS) was added (200 ng/mL), and the mixture was incubated at 37° C., 5% CO2, for 24 h. Plasma was collected and assayed for prostaglandin E2 (PGE2) by radioimmunoassay (RIA), interleukin-1β (IL-1β) and tumor necrosis factor-α (TNF-α) by ELISA, as described in Mantzioris et al., supra.

TNF-α = TNF-α synthesis in LPS-treated whole blood; type: in vivo, human; conditions: 1.5 g/day
Experimental: as §1, §2

CC/C=C\C/C=C\C/C=C\C/C=C\C/C=C\CCCC(=O)O [EPA, eicosapentaenoic acid]
Effect on LPS-stimulated IL-1β synthesis (IL-1β): significantly decreased
Effect on LPS-stimulated TNF synthesis (TNF-α): statistically significant decreases
